Test results reported in US10295530B2, “Functional assay for cancer recurrence and malignant potential” (THE BRIGHAM AND WOMEN'S HOSPITAL, INC., priority 2012, dated 2019).

System: instigating LBC tumor / host platelets and bone marrow
Assay: Aspirin treatment in LBC-mediated systemic instigation: instigating LBC tumor, platelet counts, bone marrow VEGFR2+ cells
Format: in vivo, mice
Protocol: FIG. 35A. Experimental scheme to test effects of aspirin on LBC-mediated systemic instigation. All mice were injected with responders and LBC instigating tumors and treated with either 100 mg/kg aspirin or vehicle control; n=10 (5 mice per cohort for 2 independent experiments).
FIG. 35C. Numbers of VEGFR2+ cells in the bone marrow of experimental mice relative to those of cancer-free mice.
450 mg Aspirin (Sigma, A2093-100G) was dissolved in 11 ml DMSO to make a 41 mg/ml concentrated stock solution. 30 min before injection, 1.6 ml of stock solution was diluted in 11.6 ml of PBS to make a 5 mg/ml injection solution.
Vehicle control was made with 1.6 ml DMSO diluted in 11.6 ml PBS. Mice were injected i.p. with aspirin at 100 mg/kg, once per week. A similar volume:weight ratio of vehicle was administered to control animals.
In order to explore therapeutic potential and identify whether platelets were necessary for delivering the pro-tumorigenic instigating stimulus in the LBC macroenvironment, we treated mice with aspirin, which inhibits platelet activity (28). Mice were injected with LBC instigators that were permitted to grow for 4 weeks prior to initiation of weekly treatments of either aspirin or vehicle control; responders were then injected into these mice two days following the first aspirin treatment (FIG. 35A). […]

CC(=O)Oc1ccccc1C(=O)O [aspirin, Aspirin]
circulating platelet counts (aspirin 100 mg/kg i.p. once per week vs vehicle): did not significantly affect | numbers of VEGFR2-positive cells in the marrow relative to cancer-free mice (aspirin-treated LBC-bearing mice, not significantly different from vehicle-treated): ~2 fold
